These results are taken from publication PMC9988257.

The chains behind the UniProt entries cited, without tags or fusion partners.
UniProt Q99104: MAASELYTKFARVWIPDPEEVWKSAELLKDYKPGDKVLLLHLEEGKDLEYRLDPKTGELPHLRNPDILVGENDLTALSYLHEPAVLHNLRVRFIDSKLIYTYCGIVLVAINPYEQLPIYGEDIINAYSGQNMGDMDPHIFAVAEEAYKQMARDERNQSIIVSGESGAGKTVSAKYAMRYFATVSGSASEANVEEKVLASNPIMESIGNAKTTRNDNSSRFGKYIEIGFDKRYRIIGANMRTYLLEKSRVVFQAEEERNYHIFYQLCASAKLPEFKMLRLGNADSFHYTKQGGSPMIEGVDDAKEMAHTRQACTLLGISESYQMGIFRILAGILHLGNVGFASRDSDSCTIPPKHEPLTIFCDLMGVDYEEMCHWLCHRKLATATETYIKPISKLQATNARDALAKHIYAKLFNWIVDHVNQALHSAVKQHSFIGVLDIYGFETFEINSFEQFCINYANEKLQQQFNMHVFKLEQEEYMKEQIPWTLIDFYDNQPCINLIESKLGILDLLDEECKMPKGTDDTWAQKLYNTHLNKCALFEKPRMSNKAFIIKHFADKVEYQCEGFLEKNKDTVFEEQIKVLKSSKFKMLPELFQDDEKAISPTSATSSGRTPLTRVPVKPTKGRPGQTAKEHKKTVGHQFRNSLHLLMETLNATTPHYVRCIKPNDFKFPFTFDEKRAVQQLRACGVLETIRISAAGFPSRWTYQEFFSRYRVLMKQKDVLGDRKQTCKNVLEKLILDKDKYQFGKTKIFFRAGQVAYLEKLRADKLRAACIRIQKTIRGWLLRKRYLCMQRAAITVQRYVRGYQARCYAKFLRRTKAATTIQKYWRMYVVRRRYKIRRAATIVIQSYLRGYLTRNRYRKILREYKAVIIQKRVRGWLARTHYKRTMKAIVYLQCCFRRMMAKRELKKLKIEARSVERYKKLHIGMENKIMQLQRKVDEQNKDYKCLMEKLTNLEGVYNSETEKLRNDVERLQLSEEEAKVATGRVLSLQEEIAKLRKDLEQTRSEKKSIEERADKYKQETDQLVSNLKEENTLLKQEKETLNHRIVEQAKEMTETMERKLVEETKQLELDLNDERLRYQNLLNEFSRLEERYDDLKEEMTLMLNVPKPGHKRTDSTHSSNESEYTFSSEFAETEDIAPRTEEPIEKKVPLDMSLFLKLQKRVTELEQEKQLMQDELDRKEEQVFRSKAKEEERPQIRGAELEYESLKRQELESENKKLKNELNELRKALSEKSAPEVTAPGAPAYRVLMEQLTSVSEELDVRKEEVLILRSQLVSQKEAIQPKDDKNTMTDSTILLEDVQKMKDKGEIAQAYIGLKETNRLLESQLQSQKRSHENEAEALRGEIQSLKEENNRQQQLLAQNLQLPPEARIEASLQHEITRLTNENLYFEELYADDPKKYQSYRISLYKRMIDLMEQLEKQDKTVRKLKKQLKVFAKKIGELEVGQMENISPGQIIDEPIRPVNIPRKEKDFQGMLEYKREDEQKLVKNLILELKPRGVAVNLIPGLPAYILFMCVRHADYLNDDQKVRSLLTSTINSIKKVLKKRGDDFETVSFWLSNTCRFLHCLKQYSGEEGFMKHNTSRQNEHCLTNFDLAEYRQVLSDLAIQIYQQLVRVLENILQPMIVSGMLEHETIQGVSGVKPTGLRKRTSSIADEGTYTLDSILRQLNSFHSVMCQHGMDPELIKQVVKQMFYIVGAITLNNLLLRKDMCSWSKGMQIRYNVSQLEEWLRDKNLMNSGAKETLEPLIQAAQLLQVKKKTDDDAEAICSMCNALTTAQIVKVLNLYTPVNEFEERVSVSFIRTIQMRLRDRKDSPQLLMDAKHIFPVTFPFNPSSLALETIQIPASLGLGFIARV
UniProt P97479: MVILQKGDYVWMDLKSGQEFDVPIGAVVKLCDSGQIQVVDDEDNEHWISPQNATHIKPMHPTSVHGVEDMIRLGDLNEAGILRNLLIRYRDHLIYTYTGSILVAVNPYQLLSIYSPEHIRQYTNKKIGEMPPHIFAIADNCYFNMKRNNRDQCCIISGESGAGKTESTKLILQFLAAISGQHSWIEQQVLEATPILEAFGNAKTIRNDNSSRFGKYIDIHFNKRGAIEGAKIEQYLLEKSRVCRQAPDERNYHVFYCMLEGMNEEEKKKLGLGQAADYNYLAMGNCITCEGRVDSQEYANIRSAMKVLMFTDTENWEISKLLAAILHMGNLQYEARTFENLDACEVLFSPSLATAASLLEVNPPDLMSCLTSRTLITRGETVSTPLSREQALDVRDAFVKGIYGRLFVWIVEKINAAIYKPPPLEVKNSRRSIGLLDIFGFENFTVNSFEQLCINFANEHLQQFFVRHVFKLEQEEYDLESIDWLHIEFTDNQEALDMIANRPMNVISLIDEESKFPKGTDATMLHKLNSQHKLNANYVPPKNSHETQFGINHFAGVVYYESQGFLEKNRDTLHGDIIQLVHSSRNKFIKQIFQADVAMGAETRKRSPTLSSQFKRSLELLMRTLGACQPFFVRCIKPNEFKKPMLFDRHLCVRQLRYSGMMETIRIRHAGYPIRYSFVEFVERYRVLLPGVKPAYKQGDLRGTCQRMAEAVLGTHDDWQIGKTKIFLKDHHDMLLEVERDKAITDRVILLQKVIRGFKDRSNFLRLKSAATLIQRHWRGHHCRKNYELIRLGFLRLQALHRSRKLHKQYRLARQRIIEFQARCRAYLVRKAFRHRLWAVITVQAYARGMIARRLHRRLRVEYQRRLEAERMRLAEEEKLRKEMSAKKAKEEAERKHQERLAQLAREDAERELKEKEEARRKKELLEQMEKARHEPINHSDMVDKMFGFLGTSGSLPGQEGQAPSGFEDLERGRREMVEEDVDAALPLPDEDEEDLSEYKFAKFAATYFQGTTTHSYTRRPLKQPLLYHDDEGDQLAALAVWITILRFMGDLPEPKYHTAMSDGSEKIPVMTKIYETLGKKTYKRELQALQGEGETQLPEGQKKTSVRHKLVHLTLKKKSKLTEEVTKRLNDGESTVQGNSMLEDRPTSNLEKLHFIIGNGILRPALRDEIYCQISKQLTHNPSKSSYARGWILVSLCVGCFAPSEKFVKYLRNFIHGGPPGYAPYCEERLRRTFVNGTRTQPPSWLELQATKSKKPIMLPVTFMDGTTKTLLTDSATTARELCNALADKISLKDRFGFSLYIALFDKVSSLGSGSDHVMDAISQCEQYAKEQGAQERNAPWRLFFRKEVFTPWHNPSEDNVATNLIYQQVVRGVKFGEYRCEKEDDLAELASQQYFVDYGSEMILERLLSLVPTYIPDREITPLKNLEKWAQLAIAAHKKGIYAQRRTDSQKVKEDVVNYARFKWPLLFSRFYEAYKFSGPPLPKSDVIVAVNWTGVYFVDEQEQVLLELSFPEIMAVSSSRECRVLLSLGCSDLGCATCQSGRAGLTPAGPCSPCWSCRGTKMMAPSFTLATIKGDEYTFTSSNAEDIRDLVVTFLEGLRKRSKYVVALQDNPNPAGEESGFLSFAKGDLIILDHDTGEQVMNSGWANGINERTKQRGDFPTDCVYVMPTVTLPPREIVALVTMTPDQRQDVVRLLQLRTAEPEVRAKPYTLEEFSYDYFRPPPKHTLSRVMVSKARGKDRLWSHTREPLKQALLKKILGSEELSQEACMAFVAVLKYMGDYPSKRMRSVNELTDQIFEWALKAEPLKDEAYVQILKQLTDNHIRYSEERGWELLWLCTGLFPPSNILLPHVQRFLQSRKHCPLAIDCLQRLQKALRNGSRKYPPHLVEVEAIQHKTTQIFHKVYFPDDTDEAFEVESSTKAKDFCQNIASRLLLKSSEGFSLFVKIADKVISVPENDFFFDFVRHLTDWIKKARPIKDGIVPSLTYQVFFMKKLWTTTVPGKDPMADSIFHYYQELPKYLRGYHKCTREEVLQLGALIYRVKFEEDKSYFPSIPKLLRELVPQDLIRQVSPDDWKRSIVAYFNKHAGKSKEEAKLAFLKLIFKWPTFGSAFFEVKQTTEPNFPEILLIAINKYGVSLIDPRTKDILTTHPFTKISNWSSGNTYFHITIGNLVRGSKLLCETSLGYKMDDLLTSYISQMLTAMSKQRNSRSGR

Results are given in words; binding and its absence hold for the method and conditions named. Binding seen in cells or lysates may run through a third protein. Some results given as binding are weak or reduced against the parent protein; the word gives no strength. For some assays here: Where a sequence is shown, tags or fusion partners need not be part of it.

Assay [1] has as its target T1, FLAG-melanophilin (expressed in MIN6 cells) (mouse) (UniProt Q91V27).
T1 sequence: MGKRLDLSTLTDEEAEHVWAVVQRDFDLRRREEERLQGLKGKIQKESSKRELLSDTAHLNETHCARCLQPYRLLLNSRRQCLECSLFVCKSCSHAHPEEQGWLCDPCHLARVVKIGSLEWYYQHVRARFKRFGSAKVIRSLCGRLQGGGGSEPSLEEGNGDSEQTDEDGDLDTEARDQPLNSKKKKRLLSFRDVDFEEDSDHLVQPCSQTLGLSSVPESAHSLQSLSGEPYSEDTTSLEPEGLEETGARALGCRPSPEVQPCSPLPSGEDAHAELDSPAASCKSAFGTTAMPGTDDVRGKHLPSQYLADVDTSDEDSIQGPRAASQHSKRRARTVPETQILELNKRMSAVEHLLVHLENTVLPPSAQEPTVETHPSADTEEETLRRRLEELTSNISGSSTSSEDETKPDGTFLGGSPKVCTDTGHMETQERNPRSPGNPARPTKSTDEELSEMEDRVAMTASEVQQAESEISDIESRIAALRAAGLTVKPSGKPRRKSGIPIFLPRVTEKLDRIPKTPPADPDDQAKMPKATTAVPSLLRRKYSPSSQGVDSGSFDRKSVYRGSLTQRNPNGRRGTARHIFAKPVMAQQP
Nature of the assay: co-IP; MIN6 cells expressing FLAG-tagged melanophilin or exophilin-8; immunoprecipitated with anti-FLAG antibody; immunoblotted for endogenous proteins. (Immunoblotting shows a protein as a band on a membrane.)

In assay [2] the target is T2, FLAG-tagged exophilin-8 (expressed in MIN6 cells) (mouse) (UniProt Q8K3I4).
T2 sequence: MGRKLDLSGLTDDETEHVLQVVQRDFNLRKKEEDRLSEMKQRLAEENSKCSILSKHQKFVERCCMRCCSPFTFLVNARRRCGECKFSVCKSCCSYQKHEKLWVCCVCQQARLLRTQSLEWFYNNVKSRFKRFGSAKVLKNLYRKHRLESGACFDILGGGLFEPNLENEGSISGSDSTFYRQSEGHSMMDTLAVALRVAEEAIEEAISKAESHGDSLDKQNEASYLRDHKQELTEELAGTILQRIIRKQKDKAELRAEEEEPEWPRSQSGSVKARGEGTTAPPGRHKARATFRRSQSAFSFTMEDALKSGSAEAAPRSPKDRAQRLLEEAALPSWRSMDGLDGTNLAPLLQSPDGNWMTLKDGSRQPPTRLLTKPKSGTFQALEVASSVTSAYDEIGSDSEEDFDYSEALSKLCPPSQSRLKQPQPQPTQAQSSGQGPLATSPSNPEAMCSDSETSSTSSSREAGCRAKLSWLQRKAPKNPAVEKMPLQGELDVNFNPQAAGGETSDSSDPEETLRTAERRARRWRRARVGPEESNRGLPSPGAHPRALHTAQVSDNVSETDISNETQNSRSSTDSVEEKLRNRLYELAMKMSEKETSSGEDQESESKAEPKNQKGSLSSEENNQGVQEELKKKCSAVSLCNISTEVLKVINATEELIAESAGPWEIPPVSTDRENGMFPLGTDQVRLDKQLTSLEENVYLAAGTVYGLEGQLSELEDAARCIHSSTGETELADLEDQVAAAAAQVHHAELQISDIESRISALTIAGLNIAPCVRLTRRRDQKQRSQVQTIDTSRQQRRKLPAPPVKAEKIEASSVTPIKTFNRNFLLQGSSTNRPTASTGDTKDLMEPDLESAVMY
Described as above.

In assay [3] the target is T3, OSF-melanophilin (expressed in HEK293A cells) (mouse) (UniProt Q91V27).
T3 sequence: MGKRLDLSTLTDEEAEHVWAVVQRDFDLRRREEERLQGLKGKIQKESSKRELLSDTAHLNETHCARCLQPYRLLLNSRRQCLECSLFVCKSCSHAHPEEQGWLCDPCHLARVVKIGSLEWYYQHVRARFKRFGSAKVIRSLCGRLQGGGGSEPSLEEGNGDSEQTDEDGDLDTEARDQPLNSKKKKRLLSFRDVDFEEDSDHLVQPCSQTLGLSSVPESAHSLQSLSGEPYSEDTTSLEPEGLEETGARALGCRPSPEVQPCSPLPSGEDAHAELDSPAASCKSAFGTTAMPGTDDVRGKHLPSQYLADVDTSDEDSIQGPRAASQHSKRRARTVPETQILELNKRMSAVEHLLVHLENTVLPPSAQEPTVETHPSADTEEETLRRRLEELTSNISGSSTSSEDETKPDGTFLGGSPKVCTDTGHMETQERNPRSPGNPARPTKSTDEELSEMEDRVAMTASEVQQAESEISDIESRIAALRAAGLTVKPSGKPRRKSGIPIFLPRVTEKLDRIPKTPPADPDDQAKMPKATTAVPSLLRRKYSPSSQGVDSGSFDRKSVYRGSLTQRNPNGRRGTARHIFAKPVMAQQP
Description: pull-down; HEK293A cells co-transfected; cell extracts pulled down with Strep-Tactin beads; gel stained with Coomassie Brilliant Blue.

Assay [4] addresses T4, OSF-tagged exophilin-8 (expressed in HEK293A cells) (mouse) (UniProt Q8K3I4).
T4 sequence: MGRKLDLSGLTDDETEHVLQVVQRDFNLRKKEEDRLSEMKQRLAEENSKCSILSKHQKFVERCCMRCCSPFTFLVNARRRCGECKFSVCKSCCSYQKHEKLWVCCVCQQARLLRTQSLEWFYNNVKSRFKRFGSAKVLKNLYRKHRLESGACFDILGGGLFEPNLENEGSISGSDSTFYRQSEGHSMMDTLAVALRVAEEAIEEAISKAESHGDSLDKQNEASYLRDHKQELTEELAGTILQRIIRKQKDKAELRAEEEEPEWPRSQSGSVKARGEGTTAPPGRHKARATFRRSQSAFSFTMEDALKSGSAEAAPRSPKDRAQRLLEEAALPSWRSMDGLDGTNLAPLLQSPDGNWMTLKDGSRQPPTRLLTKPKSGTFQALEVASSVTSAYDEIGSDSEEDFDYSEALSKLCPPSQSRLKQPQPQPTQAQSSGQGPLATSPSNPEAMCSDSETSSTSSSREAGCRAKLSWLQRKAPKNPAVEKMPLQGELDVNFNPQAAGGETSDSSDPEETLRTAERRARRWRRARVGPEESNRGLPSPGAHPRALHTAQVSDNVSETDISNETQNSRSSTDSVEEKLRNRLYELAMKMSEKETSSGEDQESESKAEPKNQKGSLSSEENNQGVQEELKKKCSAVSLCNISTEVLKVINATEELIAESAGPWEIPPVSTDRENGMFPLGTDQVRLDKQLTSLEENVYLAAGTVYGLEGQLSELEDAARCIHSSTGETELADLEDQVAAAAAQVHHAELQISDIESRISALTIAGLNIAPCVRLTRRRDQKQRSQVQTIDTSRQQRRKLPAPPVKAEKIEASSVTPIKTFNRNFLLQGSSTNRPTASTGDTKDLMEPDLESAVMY
The description is as above.

Turning to “myosin-Va (endogenous, MIN6 cells) (from UniProt Q99104 1-1853)”, in assay [1], the binding result is “binds”.

“myosin-VIIa (endogenous, MIN6 cells) (from UniProt P97479 1-2215)”: the binding entry in assay [2] is “binds”.

B1: Exophilin-8 (coexpressed with OSF-melanophilin in HEK293A cells) (protein, UniProt Q8K3I4 1-856)
chain: MGRKLDLSGLTDDETEHVLQVVQRDFNLRKKEEDRLSEMKQRLAEENSKCSILSKHQKFVERCCMRCCSPFTFLVNARRRCGECKFSVCKSCCSYQKHEKLWVCCVCQQARLLRTQSLEWFYNNVKSRFKRFGSAKVLKNLYRKHRLESGACFDILGGGLFEPNLENEGSISGSDSTFYRQSEGHSMMDTLAVALRVAEEAIEEAISKAESHGDSLDKQNEASYLRDHKQELTEELAGTILQRIIRKQKDKAELRAEEEEPEWPRSQSGSVKARGEGTTAPPGRHKARATFRRSQSAFSFTMEDALKSGSAEAAPRSPKDRAQRLLEEAALPSWRSMDGLDGTNLAPLLQSPDGNWMTLKDGSRQPPTRLLTKPKSGTFQALEVASSVTSAYDEIGSDSEEDFDYSEALSKLCPPSQSRLKQPQPQPTQAQSSGQGPLATSPSNPEAMCSDSETSSTSSSREAGCRAKLSWLQRKAPKNPAVEKMPLQGELDVNFNPQAAGGETSDSSDPEETLRTAERRARRWRRARVGPEESNRGLPSPGAHPRALHTAQVSDNVSETDISNETQNSRSSTDSVEEKLRNRLYELAMKMSEKETSSGEDQESESKAEPKNQKGSLSSEENNQGVQEELKKKCSAVSLCNISTEVLKVINATEELIAESAGPWEIPPVSTDRENGMFPLGTDQVRLDKQLTSLEENVYLAAGTVYGLEGQLSELEDAARCIHSSTGETELADLEDQVAAAAAQVHHAELQISDIESRISALTIAGLNIAPCVRLTRRRDQKQRSQVQTIDTSRQQRRKLPAPPVKAEKIEASSVTPIKTFNRNFLLQGSSTNRPTASTGDTKDLMEPDLESAVMY
With B1, the binding entry in assay [3] was “no binding”.

B2: RIM-BP2 (endogenous, MIN6 cells) (protein, UniProt Q80U40 1-1072)
chain: MREAAERRQQLELEHEQALAFLNAKQQEIQLLQQAQVEAKKEHEGAVQLLESKVRELEEKCRVQSEQFNLLSRDLEKFRQHTGSIDLLGSSSVALLDVPLAPGKPFPQYMNGLATSIHKGHEGPTGHYSVIGDYIPLSGDKLESPCVKPSFLLRSSSPRCRFESEMDNDRNSNNSKQSSSGKVHLCVARYSYNPFDGPNENPEAELPLTAGKYLYVYGDMDEDGFYEGELLDGQRGLVPSNFVDFIQDNESRLAGTLGSEQDQNFLNHSGISLERDSILHLHSPTQVDSGITDNGGGTLDVNIDDIGEDTVPYPRKITLIKQLAKSVIVGWEPPAVPPGWGTVSSYNVLVDKETRMSLALGRRTKALIEKLNTAACTYRISVQCVTSRGNSDELQCTLLVGKDVVVAPSQLRVDNITQISAQLSWLPTNSNYSHIIFLNEEELDIVKAARYKYQFFNLRPNMAYKVKVLAQPHQMPWQLPLEQREKKEACVEFSTLPAGPPAPPQDVTVHAGATAASVQVSWKPPALTPTGLSNGANVTGYGVYAKGQRVAEVIAPTADGTAVELIRLRSLEAKAVSVRTLSVQGESMDSALAAIPPDLLVPPAPHPRTAPPPKPLASDMDTKDQHLGPHVKVDESWEQSRSPGPAHGHMLEPPDMHSAGPGRRSPSPSRILPQPQGAPVSTTVAKAMAREAAQRVAESNRLEKRSLFLEQSSAGQYTNSDEEDGYASPEVKRRGTSVDDFLKGSELGKQPHCCHGDEYHTESSRGSDLSDIMEEDEEELYSEMQLEDGGRRRPSGTSHNALKILGNSTLMGRADRMEHVSRRYSHSGGGSHRHRPAMAPSIDEYTGRDHLSPDFYDESETDPGAEELPARIFVALFDYDPLTMSPNPDAAEEELPFKEGQIIKVYGDKDADGFYRGETCARLGLIPCNMVSEIHADDEEMMDQLLRQGFLPLNTPVEKIERSRRSGRGHSVPTRRMVALYDYDPRESSPNVDVEAELPFCTGDIITVFGEIDEDGFYYGELNGQKGLVPSNFLEEVPDDVEVHLSDAPPHYSHDPPMRSKAKRKKSVHFTP
As for B2, in assay [2], the binding result was “binds”.

B3: Melanophilin (coexpressed with OSF-exophilin-8 in HEK293A cells) (protein, UniProt Q91V27 1-590)
chain: MGKRLDLSTLTDEEAEHVWAVVQRDFDLRRREEERLQGLKGKIQKESSKRELLSDTAHLNETHCARCLQPYRLLLNSRRQCLECSLFVCKSCSHAHPEEQGWLCDPCHLARVVKIGSLEWYYQHVRARFKRFGSAKVIRSLCGRLQGGGGSEPSLEEGNGDSEQTDEDGDLDTEARDQPLNSKKKKRLLSFRDVDFEEDSDHLVQPCSQTLGLSSVPESAHSLQSLSGEPYSEDTTSLEPEGLEETGARALGCRPSPEVQPCSPLPSGEDAHAELDSPAASCKSAFGTTAMPGTDDVRGKHLPSQYLADVDTSDEDSIQGPRAASQHSKRRARTVPETQILELNKRMSAVEHLLVHLENTVLPPSAQEPTVETHPSADTEEETLRRRLEELTSNISGSSTSSEDETKPDGTFLGGSPKVCTDTGHMETQERNPRSPGNPARPTKSTDEELSEMEDRVAMTASEVQQAESEISDIESRIAALRAAGLTVKPSGKPRRKSGIPIFLPRVTEKLDRIPKTPPADPDDQAKMPKATTAVPSLLRRKYSPSSQGVDSGSFDRKSVYRGSLTQRNPNGRRGTARHIFAKPVMAQQP
As to B3, the binding result in assay [4] is listed as “no binding”.
